These results are taken from patent US20100093980A1 (Biogen, published 2010).

First the molecules themselves.
B1: Humanized HP1/2 Fab V24A_T32V (Fab, V domains shown)
VH: EVQLVQSGAEVKKPGATVKISCKASGFNIKDVYMHWVQQAPGKGLEWMGRIDPASGDTKYDPKFQVRVTITADTSTDTAYMELSSLRSEDTAVYYCATGMWVSTGYALDFWGQGTLVTVSS
VL: DIVMTQSPDSLAVSLGERATINCKASQSVTNDVAWYQQKPGQPPKLLIYYASNRYTGVPDRFSGSGSGTDFTLTISSLQAEDVAVYYCQQDYSSPYTFGQGTKVEIK
notes: Fab fragment; Constant parts are not specified
B2: Humanized HP1/2 Fab V24F_T32V (Fab, V domains shown)
VH: B1 VH with A24F
VL: B1 VL
notes: as for B1
B3: HP1/2 Fab, straight CDR graft (VH CDR graft paired with VL CDR graft) (Fab, V domains shown)
VH: B1 VH with A24V, V32T
VL: B1 VL
notes: as for B1
B4: Humanized HP1/2 Fab V24S_F27Y_T32V (Fab, V domains shown)
VH: B1 VH with A24S, F27Y
VL: B1 VL
notes: as for B1
B5: Humanized HP1/2 Fab F27Y_T32V_M96L (VH SEQ ID NO: 25) (Fab, V domains shown)
VH: B1 VH with A24V, F27K, M100L
VL: B1 VL
notes: as for B1

Positions count from the first letter of the chain named. Results are given in words; binding and its absence hold for the method and conditions named. A result given as binding can be weak or reduced; the word gives no strength.

This assay addresses purified α4β1 VLA4 integrin. Put plainly: ELISA, Fab on plate-coated purified VLA4.
Regarding B1, the binding result was “binds”.
Next, B2: “binds”.
Next, B3: “binds”; B4: “binds”.
With B5 the entry was “binds”.
